Experimental findings from patent US20240317858A1 are described below.

Amino acid sequences for entries named in this document (tags omitted). Residues count along the entry.
UniProt Q95LI5, residues 22-198: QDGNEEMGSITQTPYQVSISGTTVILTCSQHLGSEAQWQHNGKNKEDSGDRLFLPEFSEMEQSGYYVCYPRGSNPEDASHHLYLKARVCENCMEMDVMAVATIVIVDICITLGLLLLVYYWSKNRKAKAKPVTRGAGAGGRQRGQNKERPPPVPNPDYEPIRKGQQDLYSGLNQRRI
UniProt P07766, residues 23-207: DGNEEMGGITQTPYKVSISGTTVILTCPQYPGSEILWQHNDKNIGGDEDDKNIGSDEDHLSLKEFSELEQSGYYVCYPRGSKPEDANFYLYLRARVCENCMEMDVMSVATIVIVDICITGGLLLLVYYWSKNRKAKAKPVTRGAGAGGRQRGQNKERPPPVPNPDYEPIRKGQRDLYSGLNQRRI

Residue numbers refer to the chain shown, from its start. Results are given in words; binding and its absence hold for the method and conditions named. Some results given as binding are weak or reduced against the parent protein; the word gives no strength.

The target of test [1] is Cynomolgus CD3 on HSC-F cells (cynomolgus) (UniProt Q95LI5). The test is described as follows: flow cytometry, 100 nM IgG1, pH 7.4. In general terms: Flow cytometry measures light scatter and fluorescence of single cells or particles in a stream.
Test [2] concerns the target Human CD3 on CD3+ Jurkat cells (human) (UniProt P07766). The test is described as follows: flow cytometry, 100 nM IgG1, pH 7.4.
Test [3] addresses Cynomolgus CD3 on HSC-F cells (cynomolgus) (UniProt Q95LI5). The test is described as follows: flow cytometry, 100 nM IgG.
The target of test [4] is Human CD3 on CD3+ Jurkat cells (human) (UniProt P07766). The test is described as follows: flow cytometry, 100 nM IgG.
Test [5] deals with Cynomolgus CD3 on HSC-F cells (cynomolgus) (UniProt Q95LI5). The test is described as follows: flow cytometry, Fab titration.
Test [6] concerns the target Human CD3 on CD3+ Jurkat cells (human) (UniProt P07766). The test is described as follows: flow cytometry, Fab titration.

B1: Antibody No. A002 (ADI-50024) IgG1 (antibody, V domains shown)
VH: QVQLVQSGAEVKKPGASVKVSCKASGFNIKDYYMHWVRQAPGQRLEWIGWIDLENANTVYDAKFQGRVTITRDTSASTAYMELSSLRSEDTAVYYCARDAYGRYFYDVWGQGTLVTVSS
VL: DIVMSQSPDSLAVSLGERATINCKSSQSLLNARTGKNYLAWYQQKPGQPPKLLIYWASTRSSGVPDRFSGSGSGTDFTLTISSLQAEDVAVYYCVQSYFRRTFGGGTKVEIK
Consider B1, for which the binding entry in test [1], in test [2], in test [3] and in test [4] was “binds” each time.

B2: Antibody No. V012 (ADI-70329) Fab (Fab, V domains shown)
VH: B1 VH with I29D, N57E, G66D
VL: B1 VL
B2: the binding result in test [5] and in test [6] was “binds” in each case.

B3: Antibody No. V012 (ADI-70329) IgG1 (antibody, V domains shown)
VH: B1 VH with I29D, N57E, G66D
VL: B1 VL
In the case of B3, the binding result in test [3] and in test [4] was “binds” in each case.

B4: Antibody No. V017 (ADI-76360) IgG1 (antibody, V domains shown)
VH: B1 VH with I48M, N57D, V59I, A97G
VL: B1 VL with S5T, S61E, V95K, F99S, R100L
Regarding B4, the binding result in test [1] and in test [2] was “binds” in each case.

B5: Antibody No. A005 (ADI-26921) IgG1 (antibody, V domains shown)
VH: B1 VH with I48M, N55E, A56G, V59I
VL: B1 VL with S5T, S61E, V95K, F99S, R100L
As to B5, the binding entry in test [1] and in test [2] was “binds” each time.

B6: Antibody No. V008 (ADI-70325) Fab (Fab, V domains shown)
VH: B1 VH with N57E, G66D
VL: B1 VL
In the case of B6, the binding entry in test [5] and in test [6] was “binds” in each case.

B7: Antibody No. V009 (ADI-70326) IgG1 (antibody, V domains shown)
VH: B1 VH with N28D, D52E, N57D
VL: B1 VL
For the molecule B7, the binding result in test [1], in test [2], in test [3] and in test [4] was “binds” in each case.

B8: Antibody No. V013 (ADI-70330) IgG1 (antibody, V domains shown)
VH: B1 VH with K30D, Y60D
VL: B1 VL
On to B8, for which the binding entry in test [1], in test [2], in test [3] and in test [4] was “binds” in each case.

B9: Antibody No. V011 (ADI-70328) Fab (Fab, V domains shown)
VH: B1 VH with K30D, A56D
VL: B1 VL
On to B9, for which the binding entry in test [5] and in test [6] was “binds” throughout.

B10: Antibody No. V011 (ADI-70328) IgG1 (antibody, V domains shown)
VH: B1 VH with K30D, A56D
VL: B1 VL
Regarding B10, the binding entry in test [3] and in test [4] was “binds” throughout.

B11: Antibody No. V018 (ADI-76361) IgG1 (antibody, V domains shown)
VH: B1 VH with N28D, I48M, N55E, A56G, V59I
VL: B1 VL with S5T, S61E, V95K, F99S, R100L
Consider B11, for which the binding entry in test [1] and in test [2] was “binds” throughout.

B12: Antibody No. V008 (ADI-70325) IgG1 (antibody, V domains shown)
VH: B1 VH with N57E, G66D
VL: B1 VL
For the molecule B12, the binding result in test [3] and in test [4] was “binds” each time.

B13: Antibody No. V013 (ADI-70330) Fab (Fab, V domains shown)
VH: B1 VH with K30D, Y60D
VL: B1 VL
As for B13, the binding entry in test [5] and in test [6] was “binds” in each case.

B14: Antibody No. V010 (ADI-70327) Fab (Fab, V domains shown)
VH: B1 VH with N28D, D52E, A56D, N57D
VL: B1 VL
For B14, the binding entry in test [5] and in test [6] was “binds” each time.

B15: Antibody No. V016 (ADI-76359) IgG1 (antibody, V domains shown)
VH: B1 VH with N28D, I48M, V59I, A97G
VL: B1 VL with S5T, S61E, V95K, F99S, R100L
Consider B15, for which the binding entry in test [1] and in test [2] was “binds” each time.

B16: Antibody No. V010 (ADI-70327) IgG1 (antibody, V domains shown)
VH: B1 VH with N28D, D52E, A56D, N57D
VL: B1 VL
For B16, the binding entry in test [1], in test [2], in test [3] and in test [4] was “binds” in each case.

B17: Antibody No. V009 (ADI-70326) Fab (Fab, V domains shown)
VH: B1 VH with N28D, D52E, N57D
VL: B1 VL
As to B17, the binding entry in test [5] and in test [6] was “binds” throughout.

B18: Antibody No. A004 (ADI-26920) IgG1 (antibody, V domains shown)
VH: B1 VH with I48M, V59I, A97G
VL: B1 VL with S5T, S61E, V95K, F99S, R100L
B18: the binding result in test [1] and in test [2] was “binds” each time.

B19: Antibody No. A002 (ADI-50024) Fab (Fab, V domains shown)
VH: B1 VH
VL: B1 VL
Regarding B19, the binding entry in test [5] and in test [6] was “binds” throughout.

B20: Antibody No. V019 (ADI-76362) IgG1 (antibody, V domains shown)
VH: B1 VH with I48M, N55E, A56G, N57D, V59I
VL: B1 VL with S5T, S61E, V95K, F99S, R100L
For B20, the binding result in test [1] and in test [2] was “binds” throughout.
